Measured values: the supplement of paper PMC8728848
The other results are listed elsewhere or left out.

Columns and labels:
Assay in all cases: glycan array binding signal (z-score within array); higher = stronger binding
Conditions in all cases: glycan notation: IUPAC condensed, linker removed
Neu5Ac(a2-3)GalNAc = biological target: Neu5Ac(a2-3)GalNAc
Outline: (§1)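 The binding signal is a Z-score computed within each array. Data were drawn from 3228 arrays in the Consortium for Functional Glycomics database, restricted to those with a known protein sequence. Scores were averaged over arrays of the same protein sequence at different concentrations or buffers, and over linkers, and negative values can be taken as non-binding.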

[1] = biological target: Neu5Ac(a2-3)GalNAc(b1-4)GlcNAc
Outline: as §1

[2] = biological target: Neu5Ac(a2-3)[GalNAc(b1-4)]Gal(b1-4)Glc
Outline: as §1

[3] = biological target: Neu5Ac(a2-3)[GalNAc(b1-4)]Gal(b1-4)GlcNAc
Outline: as §1

[4] = biological target: Neu5Ac(a2-3)[GalNAc(b1-4)]Gal(b1-4)GlcNAc(b1-3)GalNAc
Outline: as §1

[5] = biological target: Neu5Ac(a2-3)[Neu5Ac(a2-6)]GalNAc
Outline: as §1

Neu5Ac(a2-6)Gal = biological target: Neu5Ac(a2-6)Gal
Outline: as §1

[6] = biological target: Neu5Ac(a2-6)Gal(b1-3)GlcNAc(b1-3)[Gal(b1-4)GlcNAc(b1-6)]Gal(b1-4)Glc
Outline: as §1

Neu5Ac(a2-6)Gal(b1-4)Glc = biological target: Neu5Ac(a2-6)Gal(b1-4)Glc
Outline: as §1

[7] = biological target: Neu5Ac(a2-6)Gal(b1-4)GlcNAc
Outline: as §1

[8] = biological target: Neu5Ac(a2-6)Gal(b1-4)GlcNAc(b1-2)Man
Outline: as §1

[9] = biological target: Neu5Ac(a2-6)Gal(b1-4)GlcNAc(b1-2)Man(a1-3)Man(b1-4)GlcNAc(b1-4)GlcNAc
Outline: as §1

[10] = biological target: Neu5Ac(a2-6)Gal(b1-4)GlcNAc(b1-2)Man(a1-3)[Gal(b1-4)GlcNAc(b1-2)Man(a1-6)]Man(b1-4)GlcNAc(b1-4)GlcNAc
Outline: as §1

[11] = biological target: Neu5Ac(a2-6)Gal(b1-4)GlcNAc(b1-2)Man(a1-3)[GlcNAc(b1-2)Man(a1-6)]Man(b1-4)GlcNAc(b1-4)GlcNAc
Outline: as §1

[12] = biological target: Neu5Ac(a2-6)Gal(b1-4)GlcNAc(b1-2)Man(a1-3)[GlcNAc(b1-4)][Neu5Ac(a2-6)Gal(b1-4)GlcNAc(b1-2)Man(a1-6)]Man(b1-4)GlcNAc(b1-4)GlcNAc
Outline: as §1

[13] = biological target: Neu5Ac(a2-6)Gal(b1-4)GlcNAc(b1-2)Man(a1-3)[Man(a1-6)]Man(b1-4)GlcNAc(b1-4)GlcNAc
Outline: as §1

[14] = biological target: Neu5Ac(a2-6)Gal(b1-4)GlcNAc(b1-2)Man(a1-3)[Neu5Ac(a2-3)Gal(b1-4)GlcNAc(b1-2)Man(a1-6)]Man(b1-4)GlcNAc(b1-4)GlcNAc
Outline: as §1

[15] = biological target: Neu5Ac(a2-6)Gal(b1-4)GlcNAc(b1-2)Man(a1-3)[Neu5Ac(a2-6)Gal(b1-4)GlcNAc(b1-2)Man(a1-6)]Man(b1-4)GlcNAc(b1-4)GlcNAc
Outline: as §1

[16] = biological target: Neu5Ac(a2-6)Gal(b1-4)GlcNAc(b1-2)Man(a1-3)[Neu5Ac(a2-6)Gal(b1-4)GlcNAc(b1-2)Man(a1-6)]Man(b1-4)GlcNAc(b1-4)[Fuc(a1-6)]GlcNAc
Outline: as §1

[17] = biological target: Neu5Ac(a2-6)Gal(b1-4)GlcNAc(b1-2)Man(a1-6)Man(b1-4)GlcNAc(b1-4)GlcNAc
Outline: as §1

[18] = biological target: Neu5Ac(a2-6)Gal(b1-4)GlcNAc(b1-2)Man(a1-6)[Gal(b1-4)GlcNAc(b1-2)Man(a1-3)]Man(b1-4)GlcNAc(b1-4)GlcNAc
Outline: as §1

[19] = biological target: Neu5Ac(a2-6)Gal(b1-4)GlcNAc(b1-2)Man(a1-6)[GlcNAc(b1-2)Man(a1-3)]Man(b1-4)GlcNAc(b1-4)GlcNAc
Outline: as §1

[20] = biological target: Neu5Ac(a2-6)Gal(b1-4)GlcNAc(b1-2)Man(a1-6)[Man(a1-3)]Man(b1-4)GlcNAc(b1-4)GlcNAc
Outline: as §1

[21] = biological target: Neu5Ac(a2-6)Gal(b1-4)GlcNAc(b1-2)[Neu5Ac(a2-6)Gal(b1-4)GlcNAc(b1-4)]Man(a1-3)[GlcNAc(b1-4)][Neu5Ac(a2-6)Gal(b1-4)GlcNAc(b1-2)[Neu5Ac(a2-6)Gal(b1-4)GlcNAc(b1-6)]Man(a1-6)]Man(b1-4)GlcNAc(b1-4)GlcNAc
Outline: as §1

[22] = biological target: Neu5Ac(a2-6)Gal(b1-4)GlcNAc(b1-2)[Neu5Ac(a2-6)Gal(b1-4)GlcNAc(b1-4)]Man(a1-3)[GlcNAc(b1-4)][Neu5Ac(a2-6)Gal(b1-4)GlcNAc(b1-4)Man(a1-6)]Man(b1-4)GlcNAc(b1-4)GlcNAc
Outline: as §1

[23] = biological target: Neu5Ac(a2-6)Gal(b1-4)GlcNAc(b1-2)[Neu5Ac(a2-6)Gal(b1-4)GlcNAc(b1-6)]Man(a1-6)[Neu5Ac(a2-6)Gal(b1-4)GlcNAc(b1-2)Man(a1-3)][GlcNAc(b1-4)]Man(b1-4)GlcNAc(b1-4)GlcNAc
Outline: as §1

[24] = biological target: Neu5Ac(a2-6)Gal(b1-4)GlcNAc(b1-3)Gal(b1-3)GlcNAc
Outline: as §1

[25] = biological target: Neu5Ac(a2-6)Gal(b1-4)GlcNAc(b1-3)Gal(b1-4)GlcNAc
Outline: as §1

[26] = biological target: Neu5Ac(a2-6)Gal(b1-4)GlcNAc(b1-3)Gal(b1-4)GlcNAc(b1-2)Man(a1-3)[Neu5Ac(a2-6)Gal(b1-4)GlcNAc(b1-3)Gal(b1-4)GlcNAc(b1-2)Man(a1-6)]GalNAc
Outline: as §1

[27] = biological target: Neu5Ac(a2-6)Gal(b1-4)GlcNAc(b1-3)Gal(b1-4)GlcNAc(b1-3)Gal(b1-4)GlcNAc
Outline: as §1

[28] = biological target: Neu5Ac(a2-6)Gal(b1-4)GlcNAc(b1-3)Gal(b1-4)GlcNAc(b1-3)Gal(b1-4)GlcNAc(b1-2)Man(a1-3)[Neu5Ac(a2-6)Gal(b1-4)GlcNAc(b1-3)Gal(b1-4)GlcNAc(b1-3)Gal(b1-4)GlcNAc(b1-2)Man(a1-6)]GalNAc
Outline: as §1

[29] = biological target: Neu5Ac(a2-6)Gal(b1-4)GlcNAc(b1-3)Gal(b1-4)GlcNAc(b1-3)GalNAc
Outline: as §1

[30] = biological target: Neu5Ac(a2-6)Gal(b1-4)GlcNAc(b1-3)Gal(b1-4)GlcNAc(b1-3)[Neu5Ac(a2-6)Gal(b1-4)GlcNAc(b1-3)Gal(b1-4)GlcNAc(b1-6)]GalNAc
Outline: as §1

[31] = biological target: Neu5Ac(a2-6)Gal(b1-4)GlcNAc(b1-3)Gal(b1-4)GlcNAc(b1-6)[Gal(b1-3)]GalNAc
Outline: as §1

[32] = biological target: Neu5Ac(a2-6)Gal(b1-4)GlcNAc(b1-3)Gal(b1-4)[Fuc(a1-3)]GlcNAc(b1-3)Gal(b1-4)[Fuc(a1-3)]GlcNAc
Outline: as §1

[33] = biological target: Neu5Ac(a2-6)Gal(b1-4)GlcNAc(b1-3)GalNAc
Outline: as §1

[34] = biological target: Neu5Ac(a2-6)Gal(b1-4)GlcNAc(b1-3)[Neu5Ac(a2-6)Gal(b1-4)GlcNAc(b1-6)]GalNAc
Outline: as §1

[35] = biological target: Neu5Ac(a2-6)Gal(b1-4)GlcNAc(b1-6)GalNAc
Outline: as §1

B1: EfCBM33A (Enterococcus faecalis), Q838S1 (protein)
chain: MKKSLLTIVLAFSFVLGGAALAPTVSEAHGYVASPGSRAFFGSSAGGNLNTNVGRAQWEPQSIEAPKNTFITGKLASAGVSGFEPLDEQTATRWHKTNITTGPLDITWNLTAQHRTASWDYYITKNGWNPNQPLDIKNFDKIASIDGKQEVPNKVVKQTINIPTDRKGYHVIYAVWGIGDTVNAFYQAIDVNIQ
glycan array binding signal (z-score) (Neu5Ac(a2-3)GalNAc): 0.041 | glycan array binding signal (z-score) [1]: 0.359 | glycan array binding signal (z-score) [2]: -0.932 | glycan array binding signal (z-score) [3]: -1.06 | glycan array binding signal (z-score) [4]: 0.272 | glycan array binding signal (z-score) [5]: 0.448 | glycan array binding signal (z-score) (Neu5Ac(a2-6)Gal): 0.387 | glycan array binding signal (z-score) [6]: -0.925 | glycan array binding signal (z-score) (Neu5Ac(a2-6)Gal(b1-4)Glc): -0.606 | glycan array binding signal (z-score) [7]: -0.501 | glycan array binding signal (z-score) [8]: -1.19 | glycan array binding signal (z-score) [9]: 2.04 | glycan array binding signal (z-score) [10]: 0.519 | glycan array binding signal (z-score) [11]: -0.922 | glycan array binding signal (z-score) [12]: -0.314 | glycan array binding signal (z-score) [13]: -0.921 | glycan array binding signal (z-score) [14]: -0.548 | glycan array binding signal (z-score) [15]: 0.296 | glycan array binding signal (z-score) [16]: -0.076 | glycan array binding signal (z-score) [17]: 0.268 | glycan array binding signal (z-score) [18]: -0.487 | glycan array binding signal (z-score) [19]: 0.54 | glycan array binding signal (z-score) [20]: 0.338 | glycan array binding signal (z-score) [21]: 2.16 | glycan array binding signal (z-score) [22]: -0.018 | glycan array binding signal (z-score) [23]: 0.103 | glycan array binding signal (z-score) [24]: -0.898 | glycan array binding signal (z-score) [25]: 2.76 | glycan array binding signal (z-score) [26]: -0.33 | glycan array binding signal (z-score) [27]: -1.38 | glycan array binding signal (z-score) [28]: 1.06 | glycan array binding signal (z-score) [29]: -1.04 | glycan array binding signal (z-score) [30]: 0.687 | glycan array binding signal (z-score) [31]: -1.17 | glycan array binding signal (z-score) [32]: 1.05 | glycan array binding signal (z-score) [33]: -0.095 | glycan array binding signal (z-score) [34]: 1.3 | glycan array binding signal (z-score) [35]: 0.504
